Laboratory results published in publication PMC12040169 (PLOS Biology, 2025).
The list shows a part of the results.

System: T1, CTL2-GFP (C. trachomatis L2/434/Bu, GFP-expressing)
T1 construct: L2/434/Bu, GFP-expressing
Set-up: species or system HeLa; Intracellular C. trachomatis growth in HeLa cells, bulk GFP fluorescence relative to DMSO
Details: bulk GFP, single well; 28.5 h, 10 µM; inhibitor

Row | SMILES | % of control remaining
1 | CC(C)NC(=O)C[C@@H]1c2nc(-c3ccccc3)sc2C[C@@H]2[C@](C)(CO)[C@H](O)CC[C@]21C [CBK289570] | 138.595%
2 | Sc1nnc(-c2ccncc2)n1CCc1ccccc1 [CBK265819] | 124.136%
3 | CC(=O)NC[C@H]1CN(c2ccc(-c3nnc([C@@H](C)N)s3)c(F)c2)C(=O)O1 [CBK017966] | 7.413%
4 | CC(C)=NNC(=O)CSc1nc(N2CCOCC2)c2ccccc2n1 [CBK009114] | 134.615%
5 | COCCn1cnnc1C(C)NC(=O)Cn1cc2ccccc2n1 (stereo not drawn) [CBK307047] | 129.666%
6 | Cc1cc(O)nc(C(C)N2CCCN(CC(F)(F)F)CC2)n1 (stereo not drawn) [CBK305491] | 87.937%
7 | COc1ccc([C@@]23CC[C@@H](NC(=O)Nc4ccc(Cl)nc4)C[C@@H]2N(C)CC3)cc1OC [CBK045764] | 124.361%
8 | O=S(=O)(c1ccccc1)C1C2C=CC(COC3CCCCO3)(O2)C1S(=O)(=O)c1ccccc1 (stereo not drawn) [CBK020045] | 140.581%
9 | O=C(O)c1ccccc1C(=O)N1CCC2(CC1)NCCc1c2[nH]c2ccccc12 [CBK047235] | 112.192%
10 | Cc1ccc(S(=O)(=O)c2ccc(C)c(S(=O)(=O)N3CCOCC3)c2)cc1S(=O)(=O)N1CCOCC1 [CBK261677] | 115.596%
11 | c1coc(CNc2nc(-c3ccoc3)cn3ccnc23)c1 [CBK066610] | 105.904%
12 | COc1ccc(Oc2nccnc2N2CCN(Cc3ccc(Cl)cc3)CC2)cc1OC [CBK083041T] | 102.662%
13 | O=c1nc(NS(=O)(=O)c2ccccc2Br)c(F)c[nH]1 [CBK067573] | 131.334%
14 | CCOc1ccc2[nH]c(C(=O)NC3CCCN(C)C3)c(C)c2c1 (stereo not drawn) [CBK282530] | 71.6934%
15 | O=C(NCCc1c[nH]c2ccc(Cl)cc12)c1cc(F)c(Cl)cc1F [CBK159763] | 110.001%
16 | O=C(c1ccco1)N1CCC(n2cnc3cccnc32)CC1 [CBK283939] | 129.167%
17 | N#Cc1ccc(CN2CCCN(C(=O)c3cccc(F)c3)CC2)cc1 [CBK304010] | 97.7662%
18 | Cc1noc(C)c1CCC(=O)N1CC[C@H]2NC(=O)c3ccccc3OCCCCC[C@H]2C1 [CBK292036] | 115.111%
19 | CCCc1cc(C(=O)OC)c(NC(=O)C2CC=CCC2C(=O)O)s1 (stereo not drawn) [CBK265397] | 98.4519%
20 | Cc1ccc(C)c(NC(=O)CCNC(=O)c2cnn3cc(C)cnc23)c1 [CBK306590] | 125.73%
21 | Nc1cc(N)nc(SCc2ccccc2)n1 [CBK261266] | 92.0097%
22 | CN1[C@@H]2CC[C@H]1C[C@@H](N1Cc3cc4ccccc4n3C1=O)C2 [CBK017722] | 95.2683%
23 | c1ccc2c(OCc3nc4ccccc4[nH]3)cccc2c1 [CBK262969] | 42.8856%
24 | Cc1ccc(C2CC(c3cccnc3)Nc3nnnn32)cc1 (stereo not drawn) [CBK288067] | 118.113%
25 | O=[N+]([O-])c1cc(C(F)(F)F)ccc1NC(CO)(CO)CO [CBK261838] | 100%
26 | CCOC(=O)C1(C2CCCCC2)CCN(C(=O)c2ccc(S(N)(=O)=O)cc2)CC1 [CBK137105] | 127.12%

Row | SMILES | % of control remaining
27 | Cc1nc(-c2ccccc2)sc1CNC(=O)c1ccc([N+](=O)[O-])o1 [CBK092352] | 29.5023%
28 | O=C(CSCc1cccc(Br)c1)Nc1cccc2cccnc12 [CBK261204] | 105.628%
29 | Nc1ncc2cc(C(F)(F)F)ccc2n1 [CBK100705] | 97.3071%
30 | Oc1ccc(/N=C/C=C/c2ccc(Cl)cc2Cl)cc1-c1nc2ccccc2s1 [CBK261242] | 89.5558%
31 | CNC(=S)NNC(=O)CN1CCSCC1 [CBK262444] | 97.0709%
32 | N#Cc1ccc(N2CCN(CCCNC(=O)Nc3ccccc3)CC2)cc1 [CBK267861] | 117.459%
33 | CCCSc1nc2c(c(=O)[nH]1)C(c1ccncc1)C1=C(CCCC1=O)N2 (stereo not drawn) [CBK287606] | 153.63%
34 | Cc1ncsc1CCOc1nccc(C(F)(F)F)n1 [CBK115798] | 117.6%
35 | COc1ccc(N(CC(=O)O)S(=O)(=O)c2ccccc2[N+](=O)[O-])c(OC)c1 [CBK262729] | 100%
36 | Cc1cnc(CNC(=O)Cn2nnc(-c3ccc(CN4CCC(C)CC4)cc3)n2)cn1 [CBK137067C] | 121.153%
37 | Cc1cc(C)c(OCCOCCN2CCN(C)CC2)c(Cl)c1 [CBK263744G] | 100%
38 | CCn1c(C)cc(C(=O)NC2CCN(c3ncccc3C#N)CC2)c1C [CBK306524] | 90.355%
39 | c1ccc(CC2CCN(Cc3cccnc3)CC2)cc1 [CBK126381] | 100%
40 | Cc1nc(CN2CCCC(NCc3cccc(C(N)=O)c3)C2)no1 (stereo not drawn) [CBK304929] | 126.592%
41 | CC(=O)c1c(C)oc2c1cc(NS(=O)(=O)c1ccc(C(=O)O)cc1)c1ccccc12 [CBK299780] | 133.526%
42 | Cc1c(C(=O)Nc2nccs2)nnn1-c1ccccc1 [CBK287766] | 106.681%
43 | Cc1cc(Cl)c(OCCNCCN)c(Br)c1 [CBK265079] | 122.049%
44 | O=C(C1=C(O)C(=O)N(CCCN2CCOCC2)C1c1ccccn1)c1ccccc1 (stereo not drawn) [CBK266604] | 174.127%
45 | COC(=O)c1cnc(Sc2ccc(Cl)cc2)nc1C(F)(F)F [CBK009299] | 93.5449%
46 | CC(C)C(NS(=O)(=O)c1ccccc1)C(=O)Nc1ccccc1 (stereo not drawn) [CBK270001] | 156.42%
47 | CCNC(=O)N1CC2(CCN(CCCCC3NC(=O)NC3=O)CC2)c2ccccc21 (stereo not drawn) [CBK126707] | 111.807%
48 | Brc1ccc2nc(NCc3ccccn3)nc(-c3ccccc3)c2c1 [CBK266736] | 116.292%
49 | Cc1nn(C)cc1C(=O)NC1CCCC1 [CBK057851] | 140.05%
50 | CCc1cc(-c2n[nH]c(C)c2Oc2ccc(C(C)C)cc2)c(O)cc1O [CBK264940] | 93.3923%
51 | CC(Nc1cccc2ccccc12)C(=O)N/N=C/c1ccc(O)cc1O (stereo not drawn) [CBK262681] | 43.74%

From no. 6 to 18, copied from above:
Row | SMILES | % of control remaining
6 | Cc1cc(O)nc(C(C)N2CCCN(CC(F)(F)F)CC2)n1 (stereo not drawn) [CBK305491] | 87.937%
7 | COc1ccc([C@@]23CC[C@@H](NC(=O)Nc4ccc(Cl)nc4)C[C@@H]2N(C)CC3)cc1OC [CBK045764] | 124.361%
8 | O=S(=O)(c1ccccc1)C1C2C=CC(COC3CCCCO3)(O2)C1S(=O)(=O)c1ccccc1 (stereo not drawn) [CBK020045] | 140.581%
9 | O=C(O)c1ccccc1C(=O)N1CCC2(CC1)NCCc1c2[nH]c2ccccc12 [CBK047235] | 112.192%
10 | Cc1ccc(S(=O)(=O)c2ccc(C)c(S(=O)(=O)N3CCOCC3)c2)cc1S(=O)(=O)N1CCOCC1 [CBK261677] | 115.596%
11 | c1coc(CNc2nc(-c3ccoc3)cn3ccnc23)c1 [CBK066610] | 105.904%
12 | COc1ccc(Oc2nccnc2N2CCN(Cc3ccc(Cl)cc3)CC2)cc1OC [CBK083041T] | 102.662%
13 | O=c1nc(NS(=O)(=O)c2ccccc2Br)c(F)c[nH]1 [CBK067573] | 131.334%
14 | CCOc1ccc2[nH]c(C(=O)NC3CCCN(C)C3)c(C)c2c1 (stereo not drawn) [CBK282530] | 71.6934%
15 | O=C(NCCc1c[nH]c2ccc(Cl)cc12)c1cc(F)c(Cl)cc1F [CBK159763] | 110.001%
16 | O=C(c1ccco1)N1CCC(n2cnc3cccnc32)CC1 [CBK283939] | 129.167%
17 | N#Cc1ccc(CN2CCCN(C(=O)c3cccc(F)c3)CC2)cc1 [CBK304010] | 97.7662%
18 | Cc1noc(C)c1CCC(=O)N1CC[C@H]2NC(=O)c3ccccc3OCCCCC[C@H]2C1 [CBK292036] | 115.111%
